Measured values as given in patent US20180208645A1.
Results are given in words; binding and its absence hold for the method and conditions named. Some binding calls cover weakened binding; strength is not graded here.

Protein sequences, listed by entry. Tags and fused reporters are not part of them. Lines headed by an entry give the natural chain unless they say otherwise; changes in a name come on top. Chains listed by the source or under a name are the forms on record and can include a tag or linker.
recombinant human mesothelin (Q13421, form named): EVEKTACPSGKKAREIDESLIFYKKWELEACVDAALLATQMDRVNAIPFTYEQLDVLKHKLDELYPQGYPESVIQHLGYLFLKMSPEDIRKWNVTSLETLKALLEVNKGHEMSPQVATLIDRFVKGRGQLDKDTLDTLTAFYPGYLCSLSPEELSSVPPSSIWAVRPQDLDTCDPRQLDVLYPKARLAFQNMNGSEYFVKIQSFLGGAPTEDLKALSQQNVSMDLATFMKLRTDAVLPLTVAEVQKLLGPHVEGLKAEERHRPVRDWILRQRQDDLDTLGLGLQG

These binders were tested against recombinant human mesothelin (human) (UniProt Q13421) (assay: ELISA, coated recombinant human mesothelin, purified His/Flag scFv, anti-Flag-HRP detection).

binding | Binder
binds | human anti-mesothelin ScFv binder MH2P (scFv, not shown: small tags and cut ends) scFv: EVQLVQSGGGLVQPGRSQRLSCAASGFTFDDYAMHWVRQAPGKGLEWVSGISWNSGSIGYADSVKGRFTISRDNAKNSLYLQMNSLRAEDTALYYCAKDISSSAGNAFDIWGQGTMVTVSSGGGGSGGGGSGGGGSSSELTQDPAVSVALGQTVRITCQGDRLRSYYASWYQQKPGQAPVLVIYGKNNRPSGIPDRFSGSDSGDTASLTITGAQAEDEADYYCHSRDSGGNHVVFGGGTQLTVLG
binds | human anti-mesothelin ScFv binder MH1P (scFv, not shown: small tags and cut ends) scFv: QVQLQQSGPGLVKPSRTLSLTCAISGDSVSSNSAAWNWIRQSPSRGLEWLGRTYYRSKWYNDYAVSVKSRITINPDTSKNQFSLQLNSVTPEDTAVYYCARGKGGKKGGAFDIWGQGTMVTVSSGGGGSGGGGSGGGGSSSELTQDPAVSVALGQTVRITCQGDSLRSYYASWYQQKPGQAPVLVIYGKNNRPSGIPDRFSGSSSGNTASLTITGAQAEDEAEYYCSSSTRNHVFFGRGTKVTVLG
binds | human anti-mesothelin ScFv binder M1-4S (scFv, not shown: small tags and cut ends) scFv: EVQLVQSGGGLVQPGGSLRLSCAASGFTFDDYAMHWVRQAPGKGLEWVSGISWNSGSIGYADSVKGRFTISRDNAKNSLYLQMNSLRAEDTALYYCAKDLSSVAGPFNYWGQGTLVTVSSGGGGSGGGGSGGGGSSSELTQDPAVSVALGQTVRITCQGDSLRSYYASWYQQKPGQAPVLVIYGKNNRPSGIPDRFSGSSSGNTASLTITGAQAEDEADYYCNSRDSSGNHLVFGGGTQLTVLG
